# Measured values published in paper PMC12368045.
# Chains of the proteins cited; added tags and fusions are not shown. Lines headed by an entry give the natural chain unless they say otherwise; changes in a name come on top.
# UniProt Q9JJ00: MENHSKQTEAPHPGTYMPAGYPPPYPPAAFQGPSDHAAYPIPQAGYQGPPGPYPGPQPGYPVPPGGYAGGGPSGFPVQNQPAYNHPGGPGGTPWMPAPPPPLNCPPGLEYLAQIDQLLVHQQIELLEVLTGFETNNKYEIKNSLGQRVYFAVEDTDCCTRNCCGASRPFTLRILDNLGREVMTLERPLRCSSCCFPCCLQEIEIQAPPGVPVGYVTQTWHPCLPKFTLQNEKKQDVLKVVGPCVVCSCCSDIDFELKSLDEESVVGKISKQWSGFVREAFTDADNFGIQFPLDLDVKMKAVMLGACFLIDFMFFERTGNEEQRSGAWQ
# UniProt Q8CFI0: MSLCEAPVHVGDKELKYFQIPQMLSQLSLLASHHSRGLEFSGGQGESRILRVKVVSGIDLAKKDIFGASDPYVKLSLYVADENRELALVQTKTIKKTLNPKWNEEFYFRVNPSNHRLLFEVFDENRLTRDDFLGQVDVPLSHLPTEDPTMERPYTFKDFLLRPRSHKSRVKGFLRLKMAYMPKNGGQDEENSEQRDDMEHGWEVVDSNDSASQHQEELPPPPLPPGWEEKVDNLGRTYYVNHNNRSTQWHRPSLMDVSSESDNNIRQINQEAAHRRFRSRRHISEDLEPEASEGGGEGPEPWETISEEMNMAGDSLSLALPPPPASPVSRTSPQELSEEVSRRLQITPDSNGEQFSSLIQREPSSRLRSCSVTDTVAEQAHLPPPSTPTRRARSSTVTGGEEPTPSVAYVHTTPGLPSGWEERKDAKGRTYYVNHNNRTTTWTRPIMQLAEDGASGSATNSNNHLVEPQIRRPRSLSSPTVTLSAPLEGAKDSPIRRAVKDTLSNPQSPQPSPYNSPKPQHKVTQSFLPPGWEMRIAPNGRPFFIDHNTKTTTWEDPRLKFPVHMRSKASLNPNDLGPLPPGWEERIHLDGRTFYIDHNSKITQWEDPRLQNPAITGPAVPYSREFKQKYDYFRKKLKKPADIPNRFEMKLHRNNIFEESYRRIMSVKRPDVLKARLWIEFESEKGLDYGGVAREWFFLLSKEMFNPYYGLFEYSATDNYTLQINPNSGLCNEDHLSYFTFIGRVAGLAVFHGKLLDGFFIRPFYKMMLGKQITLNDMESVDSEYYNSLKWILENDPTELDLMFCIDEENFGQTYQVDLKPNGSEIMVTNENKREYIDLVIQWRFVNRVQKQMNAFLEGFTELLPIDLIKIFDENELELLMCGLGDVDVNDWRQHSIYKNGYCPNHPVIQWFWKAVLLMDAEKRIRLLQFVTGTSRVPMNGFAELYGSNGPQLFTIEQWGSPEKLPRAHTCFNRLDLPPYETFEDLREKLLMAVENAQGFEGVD
# Target: PY mutant PLSCR1 (PLSCR1-GFP-PY) (mouse) (UniProt Q9JJ00)
# Assay: co-IP; HEK293T co-transfected with NEDD4-2-myc and PLSCR1-GFP (WT or PY mutant); MG132 and CQ for 4 h; immunoprecipitation with anti-GFP, anti-myc or anti-Nedd4-2 on protein G-Sepharose; immunoblot
substance,measurement,value
NEDD4-2-myc (WT) (from UniProt Q8CFI0 1-1004) (enzyme),binding,binds

# Results are given in words; binding and its absence hold for the method and conditions named. In cells and extracts the contact can be indirect. A result given as binding can be weak or reduced; the word gives no strength.
